Test results published in paper PMC5473643, “A semisynthetic Atg3 reveals that acetylation promotes Atg3 membrane binding and Atg8 lipidation” (Nature Communications, 2017).
No constants are given. Whether binding was seen depends on the method and setting. Some results given as binding are weak or reduced against the parent protein; the word gives no strength. Sequences can lack the tags named with a protein.

T1: His6-Atg3 WT (bacterially expressed) (Saccharomyces cerevisiae) (UniProt P40344)
T1 sequence: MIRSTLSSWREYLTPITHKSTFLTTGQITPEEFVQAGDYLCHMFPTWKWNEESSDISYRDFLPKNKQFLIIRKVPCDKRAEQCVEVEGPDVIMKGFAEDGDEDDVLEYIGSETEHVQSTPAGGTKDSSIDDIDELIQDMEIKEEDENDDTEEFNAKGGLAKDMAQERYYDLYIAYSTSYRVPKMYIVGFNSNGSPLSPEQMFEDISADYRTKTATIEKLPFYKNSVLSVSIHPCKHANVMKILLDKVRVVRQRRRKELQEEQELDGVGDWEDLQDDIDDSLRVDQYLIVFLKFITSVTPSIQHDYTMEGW

T2: semi-synthetic His6-Atg3 K19ac-K48ac (Saccharomyces cerevisiae) (UniProt P40344)
T2 sequence (chain, acetyl-lysine at K19 and K48): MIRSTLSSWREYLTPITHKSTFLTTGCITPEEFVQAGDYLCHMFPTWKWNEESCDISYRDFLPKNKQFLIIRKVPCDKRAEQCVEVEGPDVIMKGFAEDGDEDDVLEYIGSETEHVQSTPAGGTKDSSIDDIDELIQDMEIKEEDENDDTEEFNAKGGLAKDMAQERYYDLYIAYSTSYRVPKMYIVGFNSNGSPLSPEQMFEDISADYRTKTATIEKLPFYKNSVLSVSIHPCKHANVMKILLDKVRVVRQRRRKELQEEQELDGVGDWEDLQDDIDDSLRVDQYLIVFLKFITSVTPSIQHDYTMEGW

T3: His6-Atg8 (bacterially expressed and purified) (yeast) (UniProt P38182)
T3 sequence: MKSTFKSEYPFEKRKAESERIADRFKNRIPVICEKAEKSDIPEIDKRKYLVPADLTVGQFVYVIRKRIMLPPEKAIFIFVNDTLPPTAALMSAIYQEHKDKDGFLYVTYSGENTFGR


Legend:
[1] = target: T1, His6-Atg3 WT (bacterially expressed) (Saccharomyces cerevisiae); experiment: pull-down; His6-Atg3 WT or semi-synthetic His6-Atg3 K19ac-K48ac incubated with bacterially expressed and purified Atg8; bound proteins detected by Coomassie staining; both purified
[2] = target: T2, semi-synthetic His6-Atg3 K19ac-K48ac (Saccharomyces cerevisiae); experiment: as above
[3] = target: T3, His6-Atg8 (bacterially expressed and purified) (yeast); experiment: pull-down; purified His6-Atg8 incubated with Atg3 WT or semi-synthetic Atg3 K19ac-K48ac in Tris-HCl buffer, 25 °C, 1 h; Ni-NTA resin; washed with 0.1% Tween-20; eluted with 250 mM imidazole; Coomassie staining; both purified

| binding [1] | binding [2] | binding [3] | Binder |
| --- | --- | --- | --- |
| binds | binds |  | Atg8 (bacterially expressed and purified) (natural protein, yeast, UniProt P38182 1-117, looked up, Atg8 of yeast; 'the region coding ; Atg8' inserted into pGEX-6P-1; In the MST experiment this Atg8 was labelled on primary amines with Dye NT-647 NHS; also called recombinant Atg8; purified Atg8; source: E. coli BL21 (DE3), purified (glutathione-Sepharose 4B, PreScission protease, Mono Q, Superdex 200)) MKSTFKSEYPFEKRKAESERIADRFKNRIPVICEKAEKSDIPEIDKRKYLVPADLTVGQFVYVIRKRIMLPPEKAIFIFVNDTLPPTAALMSAIYQEHKDKDGFLYVTYSGENTFGR |
|  |  | binds | WT Atg3 (bacterially expressed and purified) (enzyme, UniProt P40344 1-310) MIRSTLSSWREYLTPITHKSTFLTTGQITPEEFVQAGDYLCHMFPTWKWNEESSDISYRDFLPKNKQFLIIRKVPCDKRAEQCVEVEGPDVIMKGFAEDGDEDDVLEYIGSETEHVQSTPAGGTKDSSIDDIDELIQDMEIKEEDENDDTEEFNAKGGLAKDMAQERYYDLYIAYSTSYRVPKMYIVGFNSNGSPLSPEQMFEDISADYRTKTATIEKLPFYKNSVLSVSIHPCKHANVMKILLDKVRVVRQRRRKELQEEQELDGVGDWEDLQDDIDDSLRVDQYLIVFLKFITSVTPSIQHDYTMEGW |
|  |  | binds | semi-synthetic Atg3 K19ac-K48ac (enzyme, UniProt P40344 1-310, acetyl-lysine at K19 and K48) MIRSTLSSWREYLTPITHKSTFLTTGCITPEEFVQAGDYLCHMFPTWKWNEESCDISYRDFLPKNKQFLIIRKVPCDKRAEQCVEVEGPDVIMKGFAEDGDEDDVLEYIGSETEHVQSTPAGGTKDSSIDDIDELIQDMEIKEEDENDDTEEFNAKGGLAKDMAQERYYDLYIAYSTSYRVPKMYIVGFNSNGSPLSPEQMFEDISADYRTKTATIEKLPFYKNSVLSVSIHPCKHANVMKILLDKVRVVRQRRRKELQEEQELDGVGDWEDLQDDIDDSLRVDQYLIVFLKFITSVTPSIQHDYTMEGW |
